Laboratory results: PubChem BioAssay AID1224830 (NIAID, 2016)
The deposit covers about 18,000 reagents; below is a random part of them. About 2,900 of all reagents (16%) count as active. 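Calls are made per well; low scores hint the gene aids the LPS response, high scores that it dampens it.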 Repeated entries: four replicate wells of each siRNA pool.

- Screen: 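Genes whose knock-down alters the TNF-alpha reporter response to LPS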 (primary screen)
- Cell system: human THP-1 monocytic leukaemia cells, TNF dual-luciferase reporter clone, PMA-differentiated to macrophage-like cells
- Reagents: siRNA pool against human genes, 50 nM
- Time to read-out: LPS for 4 h, given about 3 days after siRNA transfection
- Treatment: bacterial LPS (TLR4 ligand), 10 ng/ml
- Measured: 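TNF firefly reporter luminescence divided by renilla, normalised to the plate median, then turned into a robust z-score for each replicate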
- Reading the numbers: TNF reporter robust z-score: higher = stronger TNF reporter response to LPS
- Call rule: 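Each well counts as active if its z-score is over 2.8 or under -1.5; controls are left without a call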

{"target gene": "MRPS2 (mitochondrial ribosomal protein S2)", "TNF reporter robust z-score": -0.23, "call": "inactive"}
{"target gene": "MRPS2 (mitochondrial ribosomal protein S2)", "TNF reporter robust z-score": 0.72, "call": "inactive"}
{"target gene": "MRPS2 (mitochondrial ribosomal protein S2)", "TNF reporter robust z-score": -0.51, "call": "inactive"}
{"target gene": "MRPS2 (mitochondrial ribosomal protein S2)", "TNF reporter robust z-score": 0.76, "call": "inactive"}
{"target gene": "FGD5 (FYVE, RhoGEF and PH domain containing 5)", "TNF reporter robust z-score": 3.3, "call": "active"}
{"target gene": "FGD5 (FYVE, RhoGEF and PH domain containing 5)", "TNF reporter robust z-score": 0.44, "call": "inactive"}
{"target gene": "FGD5 (FYVE, RhoGEF and PH domain containing 5)", "TNF reporter robust z-score": 1.06, "call": "inactive"}
{"target gene": "FGD5 (FYVE, RhoGEF and PH domain containing 5)", "TNF reporter robust z-score": 0.5, "call": "inactive"}
{"target gene": "SAA2 (serum amyloid A2)", "TNF reporter robust z-score": 0.34, "call": "inactive"}
{"target gene": "SAA2 (serum amyloid A2)", "TNF reporter robust z-score": 0.63, "call": "inactive"}
{"target gene": "SAA2 (serum amyloid A2)", "TNF reporter robust z-score": -0.78, "call": "inactive"}
{"target gene": "SAA2 (serum amyloid A2)", "TNF reporter robust z-score": -1.15, "call": "inactive"}
{"target gene": "FAM9B (family with sequence similarity 9 member B)", "TNF reporter robust z-score": -0.4, "call": "inactive"}
{"target gene": "FAM9B (family with sequence similarity 9 member B)", "TNF reporter robust z-score": 0.22, "call": "inactive"}
{"target gene": "FAM9B (family with sequence similarity 9 member B)", "TNF reporter robust z-score": -0.34, "call": "inactive"}
{"target gene": "FAM9B (family with sequence similarity 9 member B)", "TNF reporter robust z-score": -0.23, "call": "inactive"}
{"target gene": "PSG11 (pregnancy specific beta-1-glycoprotein 11)", "TNF reporter robust z-score": 0.58, "call": "inactive"}
{"target gene": "PSG11 (pregnancy specific beta-1-glycoprotein 11)", "TNF reporter robust z-score": -0.06, "call": "inactive"}
{"target gene": "PSG11 (pregnancy specific beta-1-glycoprotein 11)", "TNF reporter robust z-score": -0.18, "call": "inactive"}
{"target gene": "PSG11 (pregnancy specific beta-1-glycoprotein 11)", "TNF reporter robust z-score": -0.08, "call": "inactive"}

2 entries from above, reformatted:
target gene	TNF reporter robust z-score	call
PSG11 (pregnancy specific beta-1-glycoprotein 11)	-0.06	inactive
PSG11 (pregnancy specific beta-1-glycoprotein 11)	-0.18	inactive

Additional records follow:
{"target gene": "NCR2 (natural cytotoxicity triggering receptor 2)", "TNF reporter robust z-score": -1.17, "call": "inactive"}
{"target gene": "NCR2 (natural cytotoxicity triggering receptor 2)", "TNF reporter robust z-score": -0.24, "call": "inactive"}
{"target gene": "NCR2 (natural cytotoxicity triggering receptor 2)", "TNF reporter robust z-score": -0.47, "call": "inactive"}
{"target gene": "NCR2 (natural cytotoxicity triggering receptor 2)", "TNF reporter robust z-score": -0.71, "call": "inactive"}
{"target gene": "ANKRD13A (ankyrin repeat domain 13A)", "TNF reporter robust z-score": -0.72, "call": "inactive"}
{"target gene": "ANKRD13A (ankyrin repeat domain 13A)", "TNF reporter robust z-score": 0.52, "call": "inactive"}
{"target gene": "ANKRD13A (ankyrin repeat domain 13A)", "TNF reporter robust z-score": 0.03, "call": "inactive"}
{"target gene": "ANKRD13A (ankyrin repeat domain 13A)", "TNF reporter robust z-score": -0.16, "call": "inactive"}
{"target gene": "FAM110A (family with sequence similarity 110 member A)", "TNF reporter robust z-score": -1, "call": "inactive"}
{"target gene": "FAM110A (family with sequence similarity 110 member A)", "TNF reporter robust z-score": 0.19, "call": "inactive"}
{"target gene": "FAM110A (family with sequence similarity 110 member A)", "TNF reporter robust z-score": -1.08, "call": "inactive"}
{"target gene": "FAM110A (family with sequence similarity 110 member A)", "TNF reporter robust z-score": -1.21, "call": "inactive"}
